According to US20190240176A1, “METHODS OF TREATMENT FOR MYELOID LEUKEMIA” (The University of Georgia Research Foundation, Inc., priority 2016, published 2019):
At least one compound was matched to its structure with a doubt left.

Test system: K562 human BC-CML cells
Assay: Colony formation assay, K562 cells
Assay type: cell-based
Conditions: BCAT1-knockdown K562 cells with BCAAs, rapamycin 50 nM; FIG. 3I
Method: BCAT1 inhibition by Gabapentin is shown in FIG. 14A, leukemic colony formation by human blast crisis CML was attenuated in combination with the tyrosine kinase inhibitor Imatinib. […] Three hundred cells were plated per well in triplicate, and colonies were scored on day 5 (error bars indicates s.e.m. *p<0.05, **p<0.01). Inhibition of leukemic colony formation by gabapentin (Gbp) and its structural analogs was also investigated (FIG. 14B). The colony-forming ability of K562 human CML cells treated with the indicated chemicals was investigated. One hundred fifty cells were plated per well in triplicate, and colonies were scored on day 14 (error bars indicates s.e.m. ***p<0.001 compared with the vehicle control).
The human BC-CML cell line K562, the human acute leukemia cell lines MV4-11 and U937 were maintained in Roswell Park Memorial Institute 1640 medium (RPMI-1640) with 10% FBS, 100 IU/ml penicillin and 100 μg/ml streptomycin. The human acute promyelocytic leukemia cell line HL60 was maintained in RPMI supplemented with 20% FBS. All human cell lines were obtained from ATCC, and cell line authentication testing was performed by ATCC-standardized STR analysis to verify their identity in July 2016. […] Colonies were scored on days 9 to 14. […] Colonies were scored on days 7 to 10.

SMILES: CO[C@H]1C[C@@H]2CC[C@@H](C)[C@@](O)(O2)C(=O)C(=O)N2CCCC[C@H]2C(=O)O[C@H]([C@H](C)C[C@@H]2CC[C@@H](O)[C@H](OC)C2)CC(=O)[C@H](C)/C=C(\C)[C@@H](O)[C@@H](OC)C(=O)[C@H](C)C[C@H](C)/C=C/C=C/C=C/1C [rapamycin]
- effect on BCAA-induced change of colony formation: reversed
